# Some of the results follow.
# Protein sequences, listed by entry. Tags and fused reporters are not part of them. Lines headed by an entry give the natural chain unless they say otherwise; changes in a name come on top.
# UniProt Q8NBF6: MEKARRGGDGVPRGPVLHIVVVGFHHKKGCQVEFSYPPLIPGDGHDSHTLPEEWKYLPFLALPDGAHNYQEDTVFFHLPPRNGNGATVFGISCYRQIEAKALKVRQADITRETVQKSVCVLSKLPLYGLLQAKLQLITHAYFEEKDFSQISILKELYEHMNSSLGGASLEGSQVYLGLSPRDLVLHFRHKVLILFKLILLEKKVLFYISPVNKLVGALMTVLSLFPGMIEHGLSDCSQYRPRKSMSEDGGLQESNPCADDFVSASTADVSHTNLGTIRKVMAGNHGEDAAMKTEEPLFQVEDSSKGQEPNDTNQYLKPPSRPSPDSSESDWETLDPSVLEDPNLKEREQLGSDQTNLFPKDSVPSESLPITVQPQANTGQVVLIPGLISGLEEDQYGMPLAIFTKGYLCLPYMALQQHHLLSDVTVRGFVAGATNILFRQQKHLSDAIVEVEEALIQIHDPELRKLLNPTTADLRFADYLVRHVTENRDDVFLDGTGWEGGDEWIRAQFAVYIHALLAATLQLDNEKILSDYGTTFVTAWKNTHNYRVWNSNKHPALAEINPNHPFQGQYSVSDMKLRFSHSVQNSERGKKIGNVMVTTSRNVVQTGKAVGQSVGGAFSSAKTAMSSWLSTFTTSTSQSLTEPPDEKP
# UniProt Q96GX2: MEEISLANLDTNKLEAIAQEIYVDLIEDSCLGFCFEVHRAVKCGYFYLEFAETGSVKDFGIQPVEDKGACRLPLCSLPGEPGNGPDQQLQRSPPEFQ
# UniProt Q6QNY1: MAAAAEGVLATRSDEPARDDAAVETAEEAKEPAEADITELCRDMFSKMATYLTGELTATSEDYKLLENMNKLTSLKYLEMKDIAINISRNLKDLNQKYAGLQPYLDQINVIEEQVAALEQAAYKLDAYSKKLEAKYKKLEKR
# UniProt O14965: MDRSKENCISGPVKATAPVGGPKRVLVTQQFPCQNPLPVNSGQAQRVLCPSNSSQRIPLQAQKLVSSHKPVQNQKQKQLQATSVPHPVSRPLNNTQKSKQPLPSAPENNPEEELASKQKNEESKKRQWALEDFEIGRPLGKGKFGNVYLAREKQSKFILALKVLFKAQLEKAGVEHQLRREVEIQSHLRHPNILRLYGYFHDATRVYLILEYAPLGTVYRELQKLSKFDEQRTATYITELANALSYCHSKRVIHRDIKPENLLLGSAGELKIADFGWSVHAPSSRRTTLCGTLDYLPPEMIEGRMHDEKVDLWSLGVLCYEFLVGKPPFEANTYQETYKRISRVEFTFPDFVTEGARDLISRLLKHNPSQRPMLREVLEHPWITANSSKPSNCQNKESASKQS
# UniProt O60512: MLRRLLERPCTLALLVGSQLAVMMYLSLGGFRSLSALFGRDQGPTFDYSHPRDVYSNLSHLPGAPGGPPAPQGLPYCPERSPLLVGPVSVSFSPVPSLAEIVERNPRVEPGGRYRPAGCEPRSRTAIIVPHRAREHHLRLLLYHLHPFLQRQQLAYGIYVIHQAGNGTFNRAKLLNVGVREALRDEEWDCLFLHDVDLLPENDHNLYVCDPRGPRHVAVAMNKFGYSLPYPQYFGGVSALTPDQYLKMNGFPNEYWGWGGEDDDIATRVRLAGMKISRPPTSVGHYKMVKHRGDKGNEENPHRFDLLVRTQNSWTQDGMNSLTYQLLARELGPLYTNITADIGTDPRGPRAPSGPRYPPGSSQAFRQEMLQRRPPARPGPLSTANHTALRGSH
# UniProt O94766: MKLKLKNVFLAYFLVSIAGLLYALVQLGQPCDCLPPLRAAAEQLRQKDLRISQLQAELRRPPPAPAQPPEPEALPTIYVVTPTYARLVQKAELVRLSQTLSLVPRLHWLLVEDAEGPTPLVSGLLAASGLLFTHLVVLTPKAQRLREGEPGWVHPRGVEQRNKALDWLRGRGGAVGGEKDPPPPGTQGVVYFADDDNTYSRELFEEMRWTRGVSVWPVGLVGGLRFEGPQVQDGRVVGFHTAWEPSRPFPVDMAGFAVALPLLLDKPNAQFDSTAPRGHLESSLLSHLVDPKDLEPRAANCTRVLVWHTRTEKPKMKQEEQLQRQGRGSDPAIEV
# UniProt Q9Y679: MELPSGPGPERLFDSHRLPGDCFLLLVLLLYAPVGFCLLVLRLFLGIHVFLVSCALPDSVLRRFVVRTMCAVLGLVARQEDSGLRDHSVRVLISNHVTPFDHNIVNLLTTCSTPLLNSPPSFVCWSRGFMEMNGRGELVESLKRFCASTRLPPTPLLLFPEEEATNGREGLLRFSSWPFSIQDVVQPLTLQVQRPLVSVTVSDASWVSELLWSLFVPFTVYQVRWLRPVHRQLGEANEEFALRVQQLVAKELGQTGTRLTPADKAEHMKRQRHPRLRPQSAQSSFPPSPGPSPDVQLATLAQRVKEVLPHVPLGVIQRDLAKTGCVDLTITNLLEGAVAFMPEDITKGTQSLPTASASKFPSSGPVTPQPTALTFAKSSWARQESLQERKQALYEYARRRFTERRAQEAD
# UniProt Q9NP55: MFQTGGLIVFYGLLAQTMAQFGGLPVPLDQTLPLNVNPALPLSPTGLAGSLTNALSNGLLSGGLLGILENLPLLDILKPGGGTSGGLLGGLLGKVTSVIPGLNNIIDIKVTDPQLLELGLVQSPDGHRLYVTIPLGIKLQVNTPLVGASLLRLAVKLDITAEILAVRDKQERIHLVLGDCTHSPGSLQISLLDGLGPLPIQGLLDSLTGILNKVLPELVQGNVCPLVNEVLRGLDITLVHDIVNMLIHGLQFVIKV
# UniProt P54687: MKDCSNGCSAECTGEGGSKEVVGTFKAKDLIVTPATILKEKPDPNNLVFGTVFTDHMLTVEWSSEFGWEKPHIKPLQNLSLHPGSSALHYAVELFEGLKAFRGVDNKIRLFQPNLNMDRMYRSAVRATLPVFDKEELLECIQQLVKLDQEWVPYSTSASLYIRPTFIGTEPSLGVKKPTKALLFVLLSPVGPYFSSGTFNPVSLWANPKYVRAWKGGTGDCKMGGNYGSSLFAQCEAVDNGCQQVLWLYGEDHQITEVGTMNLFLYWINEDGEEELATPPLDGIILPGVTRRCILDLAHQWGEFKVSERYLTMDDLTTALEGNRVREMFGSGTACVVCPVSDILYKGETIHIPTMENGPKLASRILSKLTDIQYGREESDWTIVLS
# UniProt Q9NSY1, whole entry, looked up: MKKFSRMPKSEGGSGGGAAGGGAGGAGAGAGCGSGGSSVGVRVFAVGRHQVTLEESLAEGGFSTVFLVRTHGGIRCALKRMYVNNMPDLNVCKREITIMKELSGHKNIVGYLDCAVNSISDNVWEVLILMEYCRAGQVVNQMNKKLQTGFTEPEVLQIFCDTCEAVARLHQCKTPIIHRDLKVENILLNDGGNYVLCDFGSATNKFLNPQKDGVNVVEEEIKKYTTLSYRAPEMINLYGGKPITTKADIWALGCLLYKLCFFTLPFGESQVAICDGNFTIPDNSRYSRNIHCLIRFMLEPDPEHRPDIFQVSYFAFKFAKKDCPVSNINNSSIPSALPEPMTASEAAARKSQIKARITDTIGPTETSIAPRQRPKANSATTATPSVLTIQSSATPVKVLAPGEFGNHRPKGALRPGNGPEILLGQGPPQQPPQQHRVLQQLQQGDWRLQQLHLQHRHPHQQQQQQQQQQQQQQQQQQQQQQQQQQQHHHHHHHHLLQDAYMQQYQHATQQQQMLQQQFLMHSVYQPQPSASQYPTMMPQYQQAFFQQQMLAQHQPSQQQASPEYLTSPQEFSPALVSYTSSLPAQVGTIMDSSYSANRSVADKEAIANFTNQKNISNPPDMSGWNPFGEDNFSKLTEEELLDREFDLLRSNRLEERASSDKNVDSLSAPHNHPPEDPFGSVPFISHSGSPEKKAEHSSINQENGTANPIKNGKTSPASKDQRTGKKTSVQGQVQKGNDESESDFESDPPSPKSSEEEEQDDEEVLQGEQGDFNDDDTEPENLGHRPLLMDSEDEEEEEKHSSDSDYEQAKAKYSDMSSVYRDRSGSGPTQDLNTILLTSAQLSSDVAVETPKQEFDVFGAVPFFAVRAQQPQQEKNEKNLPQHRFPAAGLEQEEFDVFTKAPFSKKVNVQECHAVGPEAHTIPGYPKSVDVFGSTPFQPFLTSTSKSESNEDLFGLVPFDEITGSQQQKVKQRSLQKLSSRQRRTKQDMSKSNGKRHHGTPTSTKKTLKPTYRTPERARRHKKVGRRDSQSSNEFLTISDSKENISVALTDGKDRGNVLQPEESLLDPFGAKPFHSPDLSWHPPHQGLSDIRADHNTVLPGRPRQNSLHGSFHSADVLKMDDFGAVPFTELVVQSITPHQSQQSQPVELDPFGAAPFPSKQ
# UniProt Q8WY22: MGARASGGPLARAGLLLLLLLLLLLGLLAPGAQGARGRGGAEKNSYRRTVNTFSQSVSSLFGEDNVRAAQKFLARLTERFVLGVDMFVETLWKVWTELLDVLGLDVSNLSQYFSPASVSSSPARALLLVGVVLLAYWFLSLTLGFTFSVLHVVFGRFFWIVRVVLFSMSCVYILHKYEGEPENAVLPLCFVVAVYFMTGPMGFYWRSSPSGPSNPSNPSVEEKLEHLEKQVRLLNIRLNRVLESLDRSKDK
# UniProt Q6UW56: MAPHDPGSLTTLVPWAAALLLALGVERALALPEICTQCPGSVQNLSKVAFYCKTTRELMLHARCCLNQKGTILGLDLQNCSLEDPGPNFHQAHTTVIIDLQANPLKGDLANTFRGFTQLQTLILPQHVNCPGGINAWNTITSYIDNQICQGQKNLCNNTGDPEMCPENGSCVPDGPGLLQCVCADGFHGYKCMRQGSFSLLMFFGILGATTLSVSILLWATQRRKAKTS
# UniProt Q00973: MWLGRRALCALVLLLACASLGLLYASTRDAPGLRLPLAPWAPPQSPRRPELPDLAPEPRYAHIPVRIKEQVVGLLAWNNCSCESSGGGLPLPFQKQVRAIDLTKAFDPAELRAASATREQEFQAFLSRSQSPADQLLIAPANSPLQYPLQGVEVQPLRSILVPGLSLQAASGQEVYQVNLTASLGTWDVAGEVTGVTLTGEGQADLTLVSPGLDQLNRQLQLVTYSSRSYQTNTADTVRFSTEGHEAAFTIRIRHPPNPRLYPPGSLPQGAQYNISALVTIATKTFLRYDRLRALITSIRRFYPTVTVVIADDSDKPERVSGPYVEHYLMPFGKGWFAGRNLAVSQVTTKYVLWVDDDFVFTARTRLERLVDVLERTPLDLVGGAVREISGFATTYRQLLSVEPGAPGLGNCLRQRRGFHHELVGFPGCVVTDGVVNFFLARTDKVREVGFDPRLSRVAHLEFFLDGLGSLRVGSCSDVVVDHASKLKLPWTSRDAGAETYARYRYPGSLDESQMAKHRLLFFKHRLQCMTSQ
# UniProt P15291: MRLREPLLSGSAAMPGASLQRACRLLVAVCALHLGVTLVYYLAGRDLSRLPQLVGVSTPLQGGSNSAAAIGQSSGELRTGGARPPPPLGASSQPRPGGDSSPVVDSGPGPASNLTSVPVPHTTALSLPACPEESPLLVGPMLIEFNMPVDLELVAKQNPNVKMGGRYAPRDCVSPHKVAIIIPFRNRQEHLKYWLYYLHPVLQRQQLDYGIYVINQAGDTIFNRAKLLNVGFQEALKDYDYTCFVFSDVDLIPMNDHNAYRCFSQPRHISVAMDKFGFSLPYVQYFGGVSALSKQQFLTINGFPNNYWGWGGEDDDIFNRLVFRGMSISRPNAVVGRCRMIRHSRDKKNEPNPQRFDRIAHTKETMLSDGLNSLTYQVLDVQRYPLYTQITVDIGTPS
# UniProt Q12981: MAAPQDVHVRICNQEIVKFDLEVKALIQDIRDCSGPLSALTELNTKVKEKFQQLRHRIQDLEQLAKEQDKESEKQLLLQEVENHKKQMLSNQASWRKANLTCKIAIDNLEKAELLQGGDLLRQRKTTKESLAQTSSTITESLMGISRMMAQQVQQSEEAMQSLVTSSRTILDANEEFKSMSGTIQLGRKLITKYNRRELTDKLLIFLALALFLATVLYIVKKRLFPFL
# UniProt O15392, whole entry, looked up: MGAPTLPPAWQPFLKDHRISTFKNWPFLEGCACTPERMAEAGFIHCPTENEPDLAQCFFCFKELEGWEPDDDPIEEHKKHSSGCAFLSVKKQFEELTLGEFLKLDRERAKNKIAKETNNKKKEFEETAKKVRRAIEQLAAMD
# UniProt O75363: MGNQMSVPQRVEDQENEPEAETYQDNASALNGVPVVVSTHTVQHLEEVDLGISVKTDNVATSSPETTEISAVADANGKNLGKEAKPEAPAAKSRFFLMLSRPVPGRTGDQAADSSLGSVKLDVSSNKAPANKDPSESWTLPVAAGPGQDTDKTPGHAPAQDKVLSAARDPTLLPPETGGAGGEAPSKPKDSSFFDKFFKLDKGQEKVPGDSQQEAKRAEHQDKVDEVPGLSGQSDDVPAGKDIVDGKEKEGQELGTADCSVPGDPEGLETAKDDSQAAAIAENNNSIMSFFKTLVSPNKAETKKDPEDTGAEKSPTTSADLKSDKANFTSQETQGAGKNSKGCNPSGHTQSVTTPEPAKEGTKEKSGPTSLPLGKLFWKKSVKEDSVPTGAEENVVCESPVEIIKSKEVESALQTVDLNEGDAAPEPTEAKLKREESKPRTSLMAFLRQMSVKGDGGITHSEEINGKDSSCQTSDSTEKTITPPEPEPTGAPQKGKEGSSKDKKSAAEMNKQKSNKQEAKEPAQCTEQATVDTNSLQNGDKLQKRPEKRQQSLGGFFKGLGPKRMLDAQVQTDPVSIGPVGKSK
# How the values were obtained:
# Test in all cases: log2 fold change, soluble protein after heating vs DMSO (PISA); higher = thermal stabilisation; K562 cells, 10 uM, 30 min; active = over 0.2 and 3.5 SD of the protein, either way, in both replicates (recomputed)
# [1] = compound: C1=CC=C(C=C1)[C@H](COC2=CC3=C(C=C2)NC(=O)N3)NC(=O)C4=CC=CN(C4=O)CC5=CC(=C(C=C5)F)F
# Procedure, shortened: (§1)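 Soluble protein was quantified by TMTpro 16plex LC-MS/MS after channel sums were equalised. It was obtained as the supernatant after 21,000xg for 90 min from pooled aliquots of K562 cells (2×10^6 cells/mL, 10 μM compound, 30 min) heated for 3 min across 48°C-58°C and extracted in PBS with 0.5% NP-40 at 4°C. Thermal stability values are relative to control samples and come from duplicates. They are given as log2 fold changes.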
# [2] = compound: CC1=C(SC2=C1C(=N[C@H](C3=NN=C(N32)C)CC(=O)N)C4=CC=C(C=C4)Cl)C
# Procedure, shortened: as §1
# [3] = compound: CC1=C2C(=CC=C1)N=C(N(C2=O)C3=CC=CC=C3C)CN4C=NC5=C(N=CN=C54)N
# Procedure, shortened: as §1
# [4] = compound: Cc1sc2c(c1C)C(c1ccc(Cl)cc1)=N[C@@H](CC(=O)OC(C)(C)C)c1nnc(C)n1-2
# Procedure, shortened: as §1
# [5] = compound: c1ccc([C@@H]2C[C@H]2NC2CCNCC2)cc1
# Procedure, shortened: as §1
Target,log2 fold change [1],log2 fold change [2],log2 fold change [3],log2 fold change [4],log2 fold change [5]
ATXN10 (UniProt Q9UBB4),inactive: -0.037,inactive: 0.037,inactive: 0.009,inactive: -0.011,inactive: -0.025
AVL9 (UniProt Q8NBF6),inactive: -0.033,inactive: 0.064,inactive: 0.051,inactive: 0.02,inactive: -0.035
BOD1L1 (UniProt Q8NFC6),inactive: 0.023,inactive: -0.036,inactive: -0.031,inactive: 0.032,inactive: 0.027
ATXN3 isoform 1 (UniProt P54252),inactive: -0.012,inactive: 0.001,inactive: 0.118,inactive: -0.068,inactive: 0
B4GAT1 (UniProt O43505),inactive: 0.195,inactive: 0.089,inactive: 0.013,inactive: 0.094,inactive: 0.014
BRI3 (UniProt O95415),inactive: 0.018,,,,
ATXN7L3B (UniProt Q96GX2),inactive: 0.012,inactive: 0.051,inactive: 0.093,inactive: -0.025,inactive: 0.049
BMP1 (UniProt P13497),inactive: -0.051,,,,
BIRC6 (UniProt Q9NR09),inactive: 0.01,inactive: -0.001,inactive: 0.027,inactive: 0.016,inactive: 0.003
BIRC2 (UniProt Q13490),inactive: -0.036,inactive: 0.035,inactive: 0.2,inactive: 0.042,inactive: -0.054
BLOC1S2 (UniProt Q6QNY1),inactive: -0.03,inactive: 0.03,inactive: 0.11,inactive: -0.046,inactive: -0.024
AURKA (UniProt O14965),inactive: 0,inactive: 0.148,inactive: 0.018,inactive: 0.009,inactive: -0.038
B4GALT3 (UniProt O60512),inactive: 0.046,inactive: 0.088,inactive: 0.002,inactive: 0.026,inactive: 0.173
B3GAT3 (UniProt O94766),inactive: 0,inactive: 0.006,inactive: -0.157,inactive: 0.069,inactive: -0.017
BCAS2 (UniProt O75934),inactive: 0.021,inactive: 0.027,inactive: 0.087,inactive: -0.132,inactive: -0.022
AUP1 (UniProt Q9Y679),inactive: -0.044,inactive: 0.053,inactive: 0.028,inactive: -0.074,inactive: -0.051
BCL2L1 (UniProt Q07817),inactive: -0.024,inactive: 0.021,inactive: 0.016,inactive: -0.077,inactive: -0.008
BAG2 (UniProt O95816),inactive: 0.022,inactive: -0.101,inactive: -0.17,inactive: 0.148,inactive: 0
BPIFA1 (UniProt Q9NP55),inactive: 0.022,,,,
B4GALT7 (UniProt Q9UBV7),inactive: -0.011,inactive: 0.037,inactive: 0.036,inactive: -0.044,inactive: 0.05

# Quoted at random: 3 entries already listed
Target,log2 fold change [1],log2 fold change [2],log2 fold change [3],log2 fold change [4],log2 fold change [5]
BOD1L1 (UniProt Q8NFC6),inactive: 0.023,inactive: -0.036,inactive: -0.031,inactive: 0.032,inactive: 0.027
BIRC6 (UniProt Q9NR09),inactive: 0.01,inactive: -0.001,inactive: 0.027,inactive: 0.016,inactive: 0.003
B4GALT3 (UniProt O60512),inactive: 0.046,inactive: 0.088,inactive: 0.002,inactive: 0.026,inactive: 0.173

# Continued:

Target,log2 fold change [1],log2 fold change [2],log2 fold change [3],log2 fold change [4],log2 fold change [5]
BCS1L (UniProt Q9Y276),inactive: 0.049,inactive: 0.031,inactive: 0.004,inactive: -0.042,inactive: -0.009
BCAT1 (UniProt P54687),inactive: 0.009,inactive: 0.026,inactive: 0.014,inactive: -0.009,inactive: 0.026
BPHL (UniProt Q86WA6),inactive: -0.015,inactive: 0.052,inactive: 0.075,inactive: 0.136,inactive: -0.065
BICD2 isoform 2 (UniProt Q8TD16),inactive: -0.017,inactive: 0,inactive: 0.02,inactive: -0.01,inactive: 0.005
BLVRA (UniProt P53004),inactive: -0.062,inactive: 0.104,inactive: 0.054,inactive: -0.024,inactive: -0.066
BLOC1S6 (UniProt Q9UL45),inactive: -0.003,inactive: -0.002,inactive: 0.017,inactive: -0.012,inactive: -0.032
BMP2K (UniProt Q9NSY1),inactive: 0.015,inactive: 0,inactive: -0.018,inactive: 0.035,inactive: -0.001
BNIP2 (UniProt H7C096),inactive: 0.04,,,,
ATXN7L3 isoform 2 (UniProt Q14CW9),inactive: -0.156,,,,
BRI3BP (UniProt Q8WY22),inactive: 0.165,inactive: 0.131,inactive: 0.075,inactive: 0,inactive: 0.134
"BCS1L, A0A2R8Y7T3",inactive: -0.159,,,,
ATXN2L (UniProt H3BUF6),inactive: 0.017,,,,
ATXN2L (UniProt Q8WWM7),inactive: -0.003,inactive: -0.009,inactive: -0.013,inactive: 0.012,inactive: 0.009
ATRAID isoform 3 (UniProt Q6UW56),inactive: 0.045,inactive: 0.049,inactive: 0.071,inactive: 0.02,inactive: -0.03
B4GALT4 (UniProt O60513),inactive: 0.084,,,,
BORA (UniProt Q6PGQ7),inactive: 0.159,,,,
BECN1 (UniProt Q14457),inactive: -0.071,inactive: 0.061,inactive: -0.017,inactive: 0.021,inactive: 0.05
BCLAF1 (UniProt Q9NYF8),inactive: 0.031,inactive: 0.027,inactive: -0.118,inactive: -0.013,inactive: 0.047
BAP1 (UniProt Q92560),inactive: -0.226,inactive: -0.123,inactive: -0.156,inactive: 0.066,inactive: -0.037
BCAR1 isoform 6 (UniProt P56945),inactive: -0.046,inactive: 0.054,inactive: 0.202,inactive: 0.138,inactive: 0.022

Target,log2 fold change [1],log2 fold change [2],log2 fold change [3],log2 fold change [4],log2 fold change [5]
BOLA3 (UniProt Q53S33),inactive: 0.023,inactive: 0.027,inactive: 0.046,inactive: -0.017,inactive: -0.011
BRAP (UniProt Q7Z569),inactive: -0.058,inactive: 0.025,inactive: 0.05,inactive: 0.081,inactive: 0
BNIP2 (UniProt J3KN59),inactive: 0.076,inactive: 0.031,inactive: 0.016,inactive: -0.003,inactive: -0.04
B3GNT2 (UniProt Q9NY97),inactive: 0.021,inactive: 0.133,inactive: 0.047,inactive: 0.049,inactive: -0.037
BMS1 (UniProt Q14692),inactive: 0.075,inactive: -0.225,inactive: -0.167,inactive: 0.132,inactive: -0.011
BCAT2 (UniProt O15382),inactive: 0.015,inactive: 0.048,inactive: 0,inactive: -0.036,inactive: 0.042
B4GALNT1 (UniProt Q00973),inactive: -0.029,inactive: -0.068,inactive: -0.001,inactive: -0.102,inactive: -0.062
BRAF (UniProt P15056),inactive: -0.04,inactive: 0.075,inactive: 0.041,inactive: -0.018,inactive: -0.027
BLOC1S5 (UniProt Q8TDH9),inactive: -0.037,inactive: 0.024,inactive: 0.148,inactive: -0.048,inactive: 0.014
B4GALT1 (UniProt P15291),inactive: 0.034,inactive: 0.057,inactive: -0.065,inactive: -0.022,inactive: -0.042
BANF1 (UniProt O75531),inactive: -0.064,inactive: 0.11,inactive: 0.097,inactive: -0.132,inactive: -0.08
BAG5 isoform 2 (UniProt Q9UL15),inactive: -0.099,inactive: 0.062,inactive: 0,inactive: -0.025,inactive: -0.067
BNIP1 (UniProt Q12981),inactive: -0.046,inactive: 0.042,inactive: 0.091,inactive: -0.025,inactive: -0.03
BRAT1 (UniProt Q6PJG6),inactive: -0.017,inactive: 0.03,inactive: 0.059,inactive: -0.053,inactive: -0.075
BAG1 (UniProt Q99933),inactive: 0.006,inactive: 0.036,inactive: 0.03,inactive: -0.035,inactive: 0.053
BIRC5 (UniProt O15392),inactive: -0.03,inactive: -0.127,inactive: -0.104,inactive: -0.065,inactive: 0.037
BRD4 (UniProt O60885),inactive: -0.116,active: 2.22,inactive: 0.141,active: 1.99,inactive: 0.029
BCAS1 (UniProt O75363),inactive: -0.022,inactive: 0.047,inactive: -0.117,inactive: 0.482,inactive: 0.16
BRIX1 (UniProt Q8TDN6),inactive: 0.093,inactive: -0.349,inactive: -0.242,inactive: 0.244,inactive: -0.007
